Experimental data published in patent US20140066382A1.
No constants are given. Whether binding was seen depends on the method and setting. Binding seen in cells or lysates may run through a third protein. Some binding calls cover weakened binding; strength is not graded here.

By UniProt entry, the sequences of proteins in these tests, tags left out.
UniProt Q14457: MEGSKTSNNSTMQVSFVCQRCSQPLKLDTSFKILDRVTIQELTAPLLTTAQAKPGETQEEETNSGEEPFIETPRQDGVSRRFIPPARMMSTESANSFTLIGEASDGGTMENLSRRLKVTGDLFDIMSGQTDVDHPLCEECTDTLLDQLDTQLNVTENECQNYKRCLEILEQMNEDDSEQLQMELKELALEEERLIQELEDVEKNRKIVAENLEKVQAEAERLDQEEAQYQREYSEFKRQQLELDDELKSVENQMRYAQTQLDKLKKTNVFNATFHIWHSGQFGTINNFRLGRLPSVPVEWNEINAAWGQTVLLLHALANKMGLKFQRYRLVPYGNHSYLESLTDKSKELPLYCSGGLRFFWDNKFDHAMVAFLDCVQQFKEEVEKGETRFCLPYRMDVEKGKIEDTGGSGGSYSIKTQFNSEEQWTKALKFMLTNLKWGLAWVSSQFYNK

Biological target: T1, GAPR-1 (UniProt Q9H4G4)
T1 sequence (looked up): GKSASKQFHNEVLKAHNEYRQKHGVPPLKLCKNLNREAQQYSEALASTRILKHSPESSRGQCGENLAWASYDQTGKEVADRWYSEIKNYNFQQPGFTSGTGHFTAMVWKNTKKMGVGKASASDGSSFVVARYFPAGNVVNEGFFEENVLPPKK
Assay: co-immunoprecipitation

binding: binds
Substance: WT Flag-Beclin 1 (from UniProt Q14457 1-450)
